Experimental data: article PMC6108849
The exact form of at least one protein or probe is not confirmed. For part of these data: Where cells or extracts were used, other partners may take part. For part of these data: At least one verdict rests on a figure or table, not on a statement of the authors. For part of these data: Protein sequences can lack the tags named with them.

Amino acid sequences for entries named in this document (tags omitted). A change or cut given only in a name is not applied to a line headed by its entry.
UniProt P26599: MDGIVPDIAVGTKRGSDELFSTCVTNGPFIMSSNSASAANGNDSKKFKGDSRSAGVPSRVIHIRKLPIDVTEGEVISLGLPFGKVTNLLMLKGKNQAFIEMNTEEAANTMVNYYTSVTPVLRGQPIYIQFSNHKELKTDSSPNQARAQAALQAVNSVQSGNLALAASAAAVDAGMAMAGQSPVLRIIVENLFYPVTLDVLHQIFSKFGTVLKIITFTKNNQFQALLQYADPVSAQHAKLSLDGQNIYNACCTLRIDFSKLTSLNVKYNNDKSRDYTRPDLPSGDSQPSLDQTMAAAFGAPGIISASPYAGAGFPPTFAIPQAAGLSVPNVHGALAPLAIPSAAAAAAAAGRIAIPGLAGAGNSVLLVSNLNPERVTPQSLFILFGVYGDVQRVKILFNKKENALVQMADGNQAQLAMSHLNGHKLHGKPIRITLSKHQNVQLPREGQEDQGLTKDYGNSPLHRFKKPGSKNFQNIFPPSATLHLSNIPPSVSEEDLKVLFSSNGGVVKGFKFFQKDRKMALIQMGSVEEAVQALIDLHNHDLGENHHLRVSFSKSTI

Experiments:
[1] = biological target: endogenous PTBP1 (human (HeLa)) (UniProt P26599); experiment: UV crosslinking; conditions: HeLa nuclear extract 20%, prevented by excess RRMs or mPRI-RRMs, 30 C 20 min, 10 fmol RNA, UV crosslink on ice (1920 mJ), RNase A1/T1 digestion, 15% denaturing PAGE, salt and pH not stated, protein in an extract, label: 32P-UTP
[2] = biological target: rPTBP1 (UniProt P26599); experiment: UV crosslinking; conditions: 0.5 uM rPTBP1, 10 fmol RNA, rMATR3 titrated 0-2 uM, 30 C 20 min, UV crosslink on ice (1920 mJ), RNase A1/T1 digestion, 15% denaturing PAGE, salt and pH not stated, recombinant protein, protein details: N-terminal His, label: 32P-UTP
[3] = biological target: rMATR3 mPRI-RRMs (UniProt P43243); experiment: UV crosslinking competition; conditions: recombinant protein, residues 341-592, label: 32P-UTP
[4] = biological target: T1, rMATR3 RRMs (UniProt P43243); experiment: UV crosslinking competition; conditions: 0.5 uM in HeLa nuclear extract, prevents endogenous PTBP1 crosslinking; recombinant protein; residues 362-592; label: 32P-UTP
T1 sequence (looked up): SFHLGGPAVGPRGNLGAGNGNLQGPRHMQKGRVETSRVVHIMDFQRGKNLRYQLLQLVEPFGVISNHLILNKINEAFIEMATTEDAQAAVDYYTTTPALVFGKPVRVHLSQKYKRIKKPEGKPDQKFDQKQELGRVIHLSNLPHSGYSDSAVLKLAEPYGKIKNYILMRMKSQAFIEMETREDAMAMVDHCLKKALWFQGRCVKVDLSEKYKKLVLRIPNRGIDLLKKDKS

Measured: binding result

GAAUACGAAUUCCAUAUAUGAUCGAUAAAUAUAUGGUACCUUGCUAUCUUACAUCUUUUUACGGAUCCCAUAUAUGAUCGAUAUAUAUAAGCU [ATCTT2 RNA probe]
binds: [1]; increased by PRI-RRMs (0.5 uM) | [2] | [3]; competes with 0.5 uM rPTBP1 at equimolar concentration

GAAUACGAAUUCCCUCUUUGAAUCGAUAACUCUUUGGUACCCCUCUUUGAUCGAUAACUCUUUGGAUCCCCUCUUUGAUCGAUCUCUUUAAGCUU [CTCTT6 RNA probe]
binds: [1]; preserved with PRI-RRMs (0.5 uM) | [3]; 0.5 uM in HeLa nuclear extract, prevents endogenous PTBP1 crosslinking | [4]
